Some of the results follow.
Columns and labels:
Assay in all cases: log2 fold change, soluble protein after heating vs DMSO (PISA); higher = thermal stabilisation; K562 lysate, 10 uM; active = over 0.2 and 3.5 SD of the protein, either way, in both replicates (recomputed)
vemurafenib = compound: CCCS(=O)(=O)Nc1ccc(F)c(C(=O)c2c[nH]c3ncc(-c4ccc(Cl)cc4)cc23)c1F [vemurafenib]
Outline: (§1)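 Quantification was by TMTpro 16plex LC-MS/MS with equalised channel sums, applied to the supernatant after 21,000xg for 90 min. Samples were crude K562 extract at 1 mg/mL protein in PBS pH 7.4 with 1 mM MgCl2, treated with 10 μM compound for 30 min, heated for 3 min across 48°C-58°C, pooled and brought to 0.5% NP-40 at 4°C. Values are log-two fold changes in thermal stability relative to solvent controls, from duplicates.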

By UniProt entry, the sequences of proteins in these tests, tags left out. Where a name states a change or a piece, a line headed by the entry shows the natural chain unless it says otherwise.
UniProt Q9UBU6: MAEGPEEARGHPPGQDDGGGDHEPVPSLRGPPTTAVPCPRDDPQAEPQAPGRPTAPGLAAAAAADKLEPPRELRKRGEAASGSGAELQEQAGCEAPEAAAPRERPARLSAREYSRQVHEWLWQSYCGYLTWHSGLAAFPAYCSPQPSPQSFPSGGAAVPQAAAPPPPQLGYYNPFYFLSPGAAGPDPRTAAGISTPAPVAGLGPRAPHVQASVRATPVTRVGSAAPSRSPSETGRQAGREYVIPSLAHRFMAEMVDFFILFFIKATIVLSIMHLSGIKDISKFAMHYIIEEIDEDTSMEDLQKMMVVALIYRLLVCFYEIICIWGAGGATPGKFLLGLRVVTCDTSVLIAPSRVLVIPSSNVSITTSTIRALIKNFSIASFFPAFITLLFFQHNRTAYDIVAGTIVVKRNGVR
UniProt Q8WVX9: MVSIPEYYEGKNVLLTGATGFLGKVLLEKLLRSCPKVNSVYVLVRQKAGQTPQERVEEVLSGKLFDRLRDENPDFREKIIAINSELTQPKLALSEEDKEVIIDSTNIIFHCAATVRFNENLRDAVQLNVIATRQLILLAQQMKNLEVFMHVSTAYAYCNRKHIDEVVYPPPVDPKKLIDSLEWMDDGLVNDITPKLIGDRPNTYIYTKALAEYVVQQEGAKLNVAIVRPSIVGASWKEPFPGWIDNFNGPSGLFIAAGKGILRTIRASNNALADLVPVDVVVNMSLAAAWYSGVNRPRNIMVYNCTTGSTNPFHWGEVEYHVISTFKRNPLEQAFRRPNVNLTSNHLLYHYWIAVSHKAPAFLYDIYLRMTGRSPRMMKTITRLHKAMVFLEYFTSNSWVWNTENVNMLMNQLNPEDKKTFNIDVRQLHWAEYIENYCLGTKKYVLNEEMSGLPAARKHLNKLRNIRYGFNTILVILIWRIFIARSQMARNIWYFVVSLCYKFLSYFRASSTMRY
UniProt P22830: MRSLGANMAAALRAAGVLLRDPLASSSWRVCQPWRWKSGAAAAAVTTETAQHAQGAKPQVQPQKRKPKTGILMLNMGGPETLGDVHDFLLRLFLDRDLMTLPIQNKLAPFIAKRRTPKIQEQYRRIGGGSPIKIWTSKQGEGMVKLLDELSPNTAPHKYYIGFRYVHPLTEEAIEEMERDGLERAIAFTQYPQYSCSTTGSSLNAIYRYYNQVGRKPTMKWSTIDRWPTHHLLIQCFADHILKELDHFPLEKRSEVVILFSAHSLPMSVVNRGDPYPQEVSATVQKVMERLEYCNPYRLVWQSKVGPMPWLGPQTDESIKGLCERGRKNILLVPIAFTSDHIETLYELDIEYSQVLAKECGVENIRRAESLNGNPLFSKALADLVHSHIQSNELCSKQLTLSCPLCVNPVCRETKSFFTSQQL
UniProt P07954: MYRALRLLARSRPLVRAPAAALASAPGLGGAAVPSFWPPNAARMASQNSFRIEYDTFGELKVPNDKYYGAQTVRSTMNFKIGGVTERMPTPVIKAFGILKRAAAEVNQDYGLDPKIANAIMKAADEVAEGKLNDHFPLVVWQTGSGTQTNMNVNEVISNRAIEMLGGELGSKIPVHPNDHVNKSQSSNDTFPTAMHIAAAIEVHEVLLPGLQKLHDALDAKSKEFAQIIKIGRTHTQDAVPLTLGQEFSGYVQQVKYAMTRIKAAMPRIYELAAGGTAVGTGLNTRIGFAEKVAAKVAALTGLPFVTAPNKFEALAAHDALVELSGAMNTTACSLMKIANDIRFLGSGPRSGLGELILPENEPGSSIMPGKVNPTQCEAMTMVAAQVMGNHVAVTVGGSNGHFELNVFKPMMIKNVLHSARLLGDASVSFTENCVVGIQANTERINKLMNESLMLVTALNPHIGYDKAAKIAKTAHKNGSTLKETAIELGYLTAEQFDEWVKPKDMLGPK
UniProt Q9BXW9: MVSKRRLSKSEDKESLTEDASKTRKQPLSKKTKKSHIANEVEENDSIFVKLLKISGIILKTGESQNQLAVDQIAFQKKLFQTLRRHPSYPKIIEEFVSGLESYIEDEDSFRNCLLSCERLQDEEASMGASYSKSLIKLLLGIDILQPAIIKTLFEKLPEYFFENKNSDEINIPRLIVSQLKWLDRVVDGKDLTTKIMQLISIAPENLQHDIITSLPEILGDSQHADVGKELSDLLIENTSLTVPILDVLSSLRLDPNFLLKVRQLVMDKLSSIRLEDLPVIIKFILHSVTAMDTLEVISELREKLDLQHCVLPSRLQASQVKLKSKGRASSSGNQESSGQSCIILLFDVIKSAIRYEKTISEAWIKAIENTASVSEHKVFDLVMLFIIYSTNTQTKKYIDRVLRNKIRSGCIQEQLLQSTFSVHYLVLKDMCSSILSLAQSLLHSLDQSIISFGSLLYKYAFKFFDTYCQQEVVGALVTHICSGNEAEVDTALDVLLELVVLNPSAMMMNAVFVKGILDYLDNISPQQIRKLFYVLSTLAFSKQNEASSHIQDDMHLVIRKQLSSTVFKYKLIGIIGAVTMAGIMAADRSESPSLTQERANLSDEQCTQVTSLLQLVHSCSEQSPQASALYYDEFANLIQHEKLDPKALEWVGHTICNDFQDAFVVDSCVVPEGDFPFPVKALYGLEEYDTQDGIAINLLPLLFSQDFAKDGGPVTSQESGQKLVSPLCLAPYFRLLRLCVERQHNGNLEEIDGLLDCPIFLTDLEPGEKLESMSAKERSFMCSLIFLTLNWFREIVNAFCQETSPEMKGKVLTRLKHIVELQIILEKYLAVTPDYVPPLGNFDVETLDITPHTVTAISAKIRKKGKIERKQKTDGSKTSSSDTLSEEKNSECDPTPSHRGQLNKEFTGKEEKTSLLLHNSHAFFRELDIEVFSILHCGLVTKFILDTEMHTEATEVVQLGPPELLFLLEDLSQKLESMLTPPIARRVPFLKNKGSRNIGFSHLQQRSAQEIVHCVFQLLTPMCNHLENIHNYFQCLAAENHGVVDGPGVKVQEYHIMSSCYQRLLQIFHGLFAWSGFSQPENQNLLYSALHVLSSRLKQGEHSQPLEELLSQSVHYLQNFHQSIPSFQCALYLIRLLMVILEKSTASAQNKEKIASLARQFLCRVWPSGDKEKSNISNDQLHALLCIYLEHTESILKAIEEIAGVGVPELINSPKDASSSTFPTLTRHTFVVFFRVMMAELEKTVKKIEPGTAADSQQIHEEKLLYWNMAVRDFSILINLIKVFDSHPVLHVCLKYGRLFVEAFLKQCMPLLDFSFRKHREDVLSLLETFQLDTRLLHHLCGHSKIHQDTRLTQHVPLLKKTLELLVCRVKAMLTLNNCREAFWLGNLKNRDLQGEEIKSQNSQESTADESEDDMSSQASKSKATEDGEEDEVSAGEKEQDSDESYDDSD
UniProt Q5T0N5: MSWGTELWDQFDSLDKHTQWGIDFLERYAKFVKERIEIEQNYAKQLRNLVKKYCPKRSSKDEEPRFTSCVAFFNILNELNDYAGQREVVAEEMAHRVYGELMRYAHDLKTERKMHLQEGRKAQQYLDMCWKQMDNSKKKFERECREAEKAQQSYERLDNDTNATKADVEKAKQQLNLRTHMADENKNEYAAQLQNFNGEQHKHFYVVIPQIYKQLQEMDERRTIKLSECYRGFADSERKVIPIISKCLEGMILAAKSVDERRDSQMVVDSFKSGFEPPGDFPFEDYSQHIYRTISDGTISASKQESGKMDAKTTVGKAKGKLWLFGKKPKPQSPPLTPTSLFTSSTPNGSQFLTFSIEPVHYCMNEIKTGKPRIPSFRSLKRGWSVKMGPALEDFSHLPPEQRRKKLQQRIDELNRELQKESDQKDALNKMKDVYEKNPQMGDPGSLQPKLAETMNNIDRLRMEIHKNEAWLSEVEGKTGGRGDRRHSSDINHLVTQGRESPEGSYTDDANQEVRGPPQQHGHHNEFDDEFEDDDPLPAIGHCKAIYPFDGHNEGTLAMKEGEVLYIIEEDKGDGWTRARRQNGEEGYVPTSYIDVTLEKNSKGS
UniProt Q8N0W3: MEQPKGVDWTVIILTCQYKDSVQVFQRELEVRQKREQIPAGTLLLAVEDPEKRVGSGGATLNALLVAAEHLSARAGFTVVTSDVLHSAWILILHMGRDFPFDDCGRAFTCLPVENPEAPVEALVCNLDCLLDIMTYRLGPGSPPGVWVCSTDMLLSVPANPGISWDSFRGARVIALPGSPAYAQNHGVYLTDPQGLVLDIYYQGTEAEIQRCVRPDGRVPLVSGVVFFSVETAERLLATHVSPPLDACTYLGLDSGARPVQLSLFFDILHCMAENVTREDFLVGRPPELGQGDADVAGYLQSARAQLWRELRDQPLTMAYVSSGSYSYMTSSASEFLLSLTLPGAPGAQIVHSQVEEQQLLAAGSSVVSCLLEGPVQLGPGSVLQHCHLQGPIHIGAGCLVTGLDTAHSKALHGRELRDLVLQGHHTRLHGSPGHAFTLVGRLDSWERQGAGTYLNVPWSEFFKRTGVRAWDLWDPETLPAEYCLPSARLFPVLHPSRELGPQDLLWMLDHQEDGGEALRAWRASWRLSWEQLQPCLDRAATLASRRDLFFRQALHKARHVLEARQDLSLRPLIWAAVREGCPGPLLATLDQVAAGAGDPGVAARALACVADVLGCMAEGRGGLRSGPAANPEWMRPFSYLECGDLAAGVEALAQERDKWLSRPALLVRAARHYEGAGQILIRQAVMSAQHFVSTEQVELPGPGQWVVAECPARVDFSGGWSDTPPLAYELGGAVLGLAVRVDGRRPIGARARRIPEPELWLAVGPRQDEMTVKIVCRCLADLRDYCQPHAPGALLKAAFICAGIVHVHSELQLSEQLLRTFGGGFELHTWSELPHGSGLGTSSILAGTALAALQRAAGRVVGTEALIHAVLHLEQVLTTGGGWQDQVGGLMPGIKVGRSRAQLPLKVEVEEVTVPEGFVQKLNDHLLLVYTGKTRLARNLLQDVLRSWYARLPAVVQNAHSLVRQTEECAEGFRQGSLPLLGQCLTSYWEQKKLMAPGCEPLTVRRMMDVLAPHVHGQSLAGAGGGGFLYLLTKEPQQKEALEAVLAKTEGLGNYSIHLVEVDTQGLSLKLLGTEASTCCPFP
UniProt O95466, whole entry, looked up: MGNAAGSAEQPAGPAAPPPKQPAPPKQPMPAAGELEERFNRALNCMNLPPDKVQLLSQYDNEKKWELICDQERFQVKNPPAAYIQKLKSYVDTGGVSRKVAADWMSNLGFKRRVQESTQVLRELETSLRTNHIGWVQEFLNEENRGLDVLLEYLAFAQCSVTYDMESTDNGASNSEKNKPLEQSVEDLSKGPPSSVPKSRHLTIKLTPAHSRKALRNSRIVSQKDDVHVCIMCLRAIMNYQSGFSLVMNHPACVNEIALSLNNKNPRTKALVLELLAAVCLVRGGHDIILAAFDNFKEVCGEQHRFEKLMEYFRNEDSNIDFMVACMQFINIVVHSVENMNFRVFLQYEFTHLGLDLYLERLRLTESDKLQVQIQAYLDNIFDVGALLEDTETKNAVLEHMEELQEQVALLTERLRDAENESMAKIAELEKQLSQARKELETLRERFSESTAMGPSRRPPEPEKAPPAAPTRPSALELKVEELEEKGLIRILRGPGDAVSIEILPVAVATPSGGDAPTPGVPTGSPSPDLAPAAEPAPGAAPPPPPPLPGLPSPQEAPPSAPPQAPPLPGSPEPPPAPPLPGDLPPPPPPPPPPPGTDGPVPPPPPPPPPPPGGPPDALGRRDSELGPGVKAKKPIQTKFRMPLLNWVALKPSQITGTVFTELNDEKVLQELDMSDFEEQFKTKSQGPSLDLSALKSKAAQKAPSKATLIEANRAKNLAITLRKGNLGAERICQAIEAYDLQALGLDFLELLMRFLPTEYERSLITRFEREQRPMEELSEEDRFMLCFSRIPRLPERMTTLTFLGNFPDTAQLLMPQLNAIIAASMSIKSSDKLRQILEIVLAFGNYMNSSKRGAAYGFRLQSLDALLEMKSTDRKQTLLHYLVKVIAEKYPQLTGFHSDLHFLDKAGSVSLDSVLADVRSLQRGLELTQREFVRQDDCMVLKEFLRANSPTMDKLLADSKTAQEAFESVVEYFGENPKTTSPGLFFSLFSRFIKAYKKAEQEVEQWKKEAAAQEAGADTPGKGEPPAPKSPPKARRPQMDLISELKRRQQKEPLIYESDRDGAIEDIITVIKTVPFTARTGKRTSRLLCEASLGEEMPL
UniProt Q13643: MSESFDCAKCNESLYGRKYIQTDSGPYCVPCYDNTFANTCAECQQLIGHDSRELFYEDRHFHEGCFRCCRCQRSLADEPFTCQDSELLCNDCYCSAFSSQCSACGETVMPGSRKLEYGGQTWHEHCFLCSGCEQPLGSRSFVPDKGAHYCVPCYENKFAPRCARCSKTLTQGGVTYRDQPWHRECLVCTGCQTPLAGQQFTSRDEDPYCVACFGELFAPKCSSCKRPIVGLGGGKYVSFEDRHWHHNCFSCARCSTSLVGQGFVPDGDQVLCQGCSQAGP
UniProt P62942, whole entry, looked up: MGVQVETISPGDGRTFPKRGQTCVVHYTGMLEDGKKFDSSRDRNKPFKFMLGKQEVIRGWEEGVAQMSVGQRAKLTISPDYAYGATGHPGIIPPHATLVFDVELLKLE

[1] = compound: CCCS(=O)(=O)Nc1ccc(F)c(C(=O)c2c[nH]c3ncc(Cl)cc23)c1F
Outline: as §1

barasertib = compound: CCN(CCCOc1ccc2c(Nc3cc(CC(=O)Nc4cccc(F)c4)[nH]n3)ncnc2c1)CCOP(=O)(O)O [barasertib]
Outline: as §1

[2] = compound: CC[C@@H]1C(=O)N(C)c2cnc(Nc3ccc(C(=O)NC4CCN(C)CC4)cc3OC)nc2N1C1CCCC1
Outline: as §1

volasertib = compound: CC[C@@H]1C(=O)N(C)c2cnc(Nc3ccc(C(=O)N[C@H]4CC[C@H](N5CCN(CC6CC6)CC5)CC4)cc3OC)nc2N1C(C)C [volasertib]
Outline: as §1

[3] = compound: CCn1c(C(=O)N(C2CC2)C2CC2)cc2c3c(ncn3C)c(Nc3cc(C)n(C)n3)nc21
Outline: as §1

[4] = compound: CCn1cc(-c2ccnc3[nH]c(-c4cccc(CN(C)C)c4)cc23)c(-c2ccc(NC(=O)N(C)C)cc2)n1
Outline: as §1

[5] = compound: CN1CCC(CNc2ccc3ncc(-c4cccc(OC(F)(F)F)c4)n3n2)CC1
Outline: as §1

saracatinib = compound: CN1CCN(CCOc2cc(OC3CCOCC3)c3c(Nc4c(Cl)ccc5c4OCO5)ncnc3c2)CC1 [saracatinib]
Outline: as §1

sotrastaurin = compound: CN1CCN(c2nc(C3=C(c4c[nH]c5ccccc45)C(=O)NC3=O)c3ccccc3n2)CC1 [sotrastaurin]
Outline: as §1

alvocidib = compound: CN1CC[C@H](c2c(O)cc(O)c3c(=O)cc(-c4ccccc4Cl)oc23)[C@H](O)C1 [alvocidib]
Outline: as §1

Tubastatin A = compound: CN1CCc2c(c3ccccc3n2Cc2ccc(C(=O)NO)cc2)C1 [Tubastatin A]
Outline: as §1

[6] = compound: CNC(=O)C1=CC=CC=C1NC2=NC(=NC=C2Cl)NC3=C(C=C(C=C3)N4CCOCC4)OC
Outline: as §1

defactinib = compound: CNC(=O)c1ccc(Nc2ncc(C(F)(F)F)c(NCc3nccnc3N(C)S(C)(=O)=O)n2)cc1 [defactinib]
Outline: as §1

[7] = compound: CNc1nc(-c2ccc3c(N)n[nH]c3c2)cc(N2C[C@@H](C(=O)NC3CCCCC3)CC[C@H]2C)n1
Outline: as §1

encorafenib = compound: COC(=O)N[C@@H](C)CNc1nccc(-c2cn(C(C)C)nc2-c2cc(Cl)cc(NS(C)(=O)=O)c2F)n1 [encorafenib]
Outline: as §1

[8] = compound: COC(=O)[C@H](CCSC)NC(=O)C1=C(C=C(C=C1)NC[C@H](CS)N)C2=CC=CC=C2
Outline: as §1

alisertib = compound: COc1cc(Nc2ncc3c(n2)-c2ccc(Cl)cc2C(c2c(F)cccc2OC)=NC3)ccc1C(=O)O [alisertib]
Outline: as §1

[9] = compound: COc1cc2nc(-c3cc(F)ccc3O)nc(N[C@@H]3CNC[C@H]3C(C)(C)O)c2cc1OC
Outline: as §1

gefitinib = compound: COc1cc2ncnc(Nc3ccc(F)c(Cl)c3)c2cc1OCCCN1CCOCC1 [gefitinib]
Outline: as §1

Measured: log2 fold change

FAM8A1 (UniProt Q9UBU6)
inactive: vemurafenib -0.042 | [1] 0.071 | barasertib 0.032 | [2] 0.064 | volasertib -0.058 | [3] -0.024 | [4] -0.182 | [5] 0.154 | saracatinib 0.037 | sotrastaurin -0.029 | alvocidib -0.001 | Tubastatin A 0.088 | [6] 0 | defactinib 0.043 | [7] 0.019 | encorafenib -0.065 | [8] 0.021 | alisertib -0.087 | [9] -0.032 | gefitinib -0.008

FLNB isoform 8 (UniProt O75369)
inactive: vemurafenib -0.004 | [1] 0.004 | barasertib 0.001 | [2] 0.008 | volasertib 0.01 | [3] -0.022 | [4] -0.051 | [5] 0.052 | saracatinib 0.017 | sotrastaurin -0.014 | alvocidib -0.013 | Tubastatin A 0.027 | [6] -0.009 | defactinib 0.006 | [7] -0.001 | encorafenib -0.006 | [8] -0.026 | alisertib 0.01 | [9] 0.005 | gefitinib -0.011

FGGY isoform 3 (UniProt Q96C11)
inactive: vemurafenib 0.089 | [1] 0.044 | barasertib -0.271 | [2] 0.018 | volasertib 0.004 | [3] -0.048 | [4] 0.207 | [5] -0.094 | saracatinib 0.048 | sotrastaurin 0.016 | alvocidib 0.092 | Tubastatin A 0.058 | [6] 0.039 | defactinib 0.014 | [7] 0.147 | encorafenib 0.068 | [8] 0.033 | alisertib 0.091 | [9] -0.011 | gefitinib -0.042

FAR1 (UniProt Q8WVX9)
inactive: vemurafenib 0.029 | [1] 0.161 | barasertib 0.116 | [2] -0.051 | volasertib 0.057 | [3] -0.008 | [4] -0.074 | [5] -0.162 | saracatinib -0.028 | sotrastaurin -0.021 | alvocidib 0 | Tubastatin A -0.043 | [6] 0.034 | defactinib 0.028 | [7] -0.039 | encorafenib 0.002 | [8] -0.009 | alisertib -0.004 | [9] -0.007 | gefitinib -0.034

FECH isoform 2 (UniProt P22830)
inactive: vemurafenib 0.363 | barasertib -0.082 | [2] 0.477 | volasertib 0.078 | [3] -0.03 | [4] 0.128 | [5] 0.699 | saracatinib -0.287 | sotrastaurin 0.014 | alvocidib 0.028 | Tubastatin A -0.123 | [6] 0.485 | defactinib -0.056 | [7] 0.664 | encorafenib -0.064 | [8] -0.091 | alisertib -0.191 | [9] 0.225 | gefitinib 0.503
active: [1] -0.891

FH (UniProt P07954)
inactive: vemurafenib 0.009 | [1] -0.005 | barasertib 0.027 | [2] -0.019 | volasertib 0.002 | [3] 0.006 | [4] 0.02 | [5] -0.029 | saracatinib 0.008 | sotrastaurin 0.013 | alvocidib 0.036 | Tubastatin A 0.03 | [6] -0.011 | defactinib 0.026 | [7] -0.016 | encorafenib -0.033 | [8] 0.048 | alisertib 0.008 | [9] -0.005 | gefitinib -0.008

FANCD2 isoform 1 (UniProt Q9BXW9)
inactive: vemurafenib 0.067 | [1] 0.053 | barasertib 0.04 | [2] 0.14 | volasertib -0.045 | [3] 0.017 | [4] -0.135 | [5] 0.02 | saracatinib 0.016 | sotrastaurin -0.029 | alvocidib 0 | Tubastatin A -0.082 | [6] -0.001 | defactinib -0.044 | [7] 0.147 | encorafenib -0.059 | [8] 0.096 | alisertib 0.001 | [9] 0.023 | gefitinib 0.009

FASTKD2 (UniProt Q9NYY8)
inactive: vemurafenib -0.014 | [1] -0.002 | barasertib 0.037 | [2] 0.004 | volasertib -0.036 | [3] 0.011 | [4] -0.072 | [5] 0.03 | saracatinib 0.012 | sotrastaurin 0.014 | alvocidib 0.014 | Tubastatin A -0.065 | [6] 0.016 | defactinib 0.056 | [7] 0.036 | encorafenib -0.016 | [8] -0.004 | alisertib 0.021 | [9] -0.033 | gefitinib 0.021

FBXO42 (UniProt Q6P3S6)
inactive: vemurafenib 0.042 | [1] 0.019 | barasertib 0.065 | [2] 0.056 | volasertib -0.022 | [3] -0.019 | [4] -0.133 | [5] 0.033 | saracatinib 0.056 | sotrastaurin 0.033 | alvocidib -0.045 | Tubastatin A 0.081 | [6] 0.019 | defactinib -0.078 | [7] -0.037 | encorafenib -0.022 | [8] 0.087 | alisertib -0.053 | [9] -0.019 | gefitinib -0.013

FNBP1L (UniProt Q5T0N5)
inactive: vemurafenib 0.003 | [1] 0.029 | barasertib 0.167 | [2] -0.085 | volasertib -0.068 | [3] -0.013 | [4] -0.024 | [5] -0.019 | saracatinib -0.013 | sotrastaurin 0.048 | alvocidib 0.04 | Tubastatin A -0.043 | [6] 0.023 | defactinib -0.066 | encorafenib 0.045 | [8] 0.034 | alisertib 0.005 | [9] -0.015 | gefitinib 0.099
active: [7] 0.357

FCSK (UniProt Q8N0W3)
inactive: vemurafenib -0.004 | [1] 0.017 | barasertib 0.052 | [2] 0.004 | volasertib -0.002 | [3] -0.013 | [4] -0.123 | [5] 0.049 | saracatinib -0.008 | sotrastaurin -0.01 | alvocidib -0.048 | Tubastatin A 0.034 | [6] -0.016 | defactinib -0.04 | [7] 0.003 | encorafenib -0.015 | [8] 0 | alisertib 0.013 | [9] 0.007 | gefitinib 0.003

FMNL1 isoform 3 (UniProt O95466)
inactive: vemurafenib 0.022 | [1] -0.008 | barasertib -0.002 | [2] 0.028 | volasertib -0.088 | [3] -0.035 | [4] 0.026 | [5] -0.032 | saracatinib 0.007 | sotrastaurin -0.006 | alvocidib 0.011 | Tubastatin A -0.053 | [6] 0.015 | defactinib 0.021 | [7] 0.015 | encorafenib 0.093 | [8] 0.018 | alisertib 0.029 | [9] 0.044 | gefitinib -0.061

FHL3 (UniProt Q13643)
inactive: vemurafenib -0.017 | [1] -0.012 | barasertib -0.061 | [2] -0.007 | volasertib 0.044 | [3] 0 | [4] 0.017 | [5] 0.036 | saracatinib -0.029 | sotrastaurin -0.102 | alvocidib 0.006 | Tubastatin A 0.025 | [6] 0.002 | defactinib -0.013 | [7] 0.036 | encorafenib -0.002 | [8] -0.083 | alisertib -0.025 | [9] -0.004 | gefitinib -0.085

FNBP1 (UniProt Q96RU3)
inactive: vemurafenib -0.065 | [1] -0.019 | barasertib -0.02 | [2] -0.047 | volasertib -0.043 | [3] 0.046 | [4] 0.042 | [5] 0.121 | saracatinib -0.049 | sotrastaurin 0.038 | alvocidib -0.131 | Tubastatin A -0.041 | [6] -0.073 | defactinib 0.015 | [7] -0.091 | encorafenib 0.052 | [8] 0.058 | alisertib -0.043 | [9] 0.004 | gefitinib -0.066

FARSA (UniProt Q9Y285)
inactive: vemurafenib -0.002 | [1] -0.01 | barasertib -0.012 | [2] 0.091 | volasertib -0.035 | [3] -0.068 | [4] -0.018 | [5] 0.054 | saracatinib 0.03 | alvocidib -0.003 | Tubastatin A -0.105 | [6] 0.007 | defactinib 0.045 | [7] 0.019 | encorafenib -0.02 | [8] 0.098 | alisertib 0.01 | [9] 0.017 | gefitinib -0.014
active: sotrastaurin 0.583

FKBP1A (UniProt P62942)
active: [4] -0.854
inactive: vemurafenib -0.138 | [1] -0.028 | barasertib 0.092 | [2] 0.107 | volasertib 0.163 | [3] -0.036 | [5] 0.146 | saracatinib 0.052 | sotrastaurin -0.017 | alvocidib -0.296 | Tubastatin A 0.047 | [6] 0.06 | defactinib 0.144 | [7] 0.034 | encorafenib 0.005 | [8] -0.061 | alisertib 0.105 | [9] -0.076 | gefitinib -0.003

From the supplement of paper PMC10849652
